According to US5192786A, “Substituted biphenylalkoxyamines” (Ortho Pharmaceutical Corporation, priority 1990, dated 1993):
Structures can show the parent of a compound that is named as a salt. At least one compound was matched to its structure with a doubt left.

Assay: General CNS Behavior
Type: in vivo, Male CD1 mice
Details: p.o.

Compound	General CNS Behavior (10 & 100 mg/kg)	General CNS Behavior (100 mg/kg)
CCCN(CCC)CCCOc1ccc(/C=C/c2cccc(OC)c2)cc1 [Example 3, (E)-3'-Methoxy-4-dipropylamino-propoxystilbene hydrochloride]	Wk CNS Depr	
C(=C\c1ccc(OCCCCn2ccnc2)cc1)/c1ccccc1 [Example 1, hydrochloride]		No CNS Activity
